# Measurements: the supplement of paper PMC8728848
# Some of the results follow.
# B1: PX14375D-bvu-513-34-513 (Bacteroides vulgatus) (protein)
# chain: TEDTFWKDETDFNLALTSCYTPLKNALNGGYYGTRGVMLRIARADEVDFRNDISDVYTVNRFTNSNTNSLTQGMFYQFYNALYRTNSIMQKLEEKKEQFSTDFQNSVKGECLFIRGFYLFQLAKEFKDAPLRLTASQSPSTFPLAKSSQADIWAQAKEDLKTAASLLPITNKIGKPTQGAAYAALGKIYVYEENWQEAINVLEPLTQNPYTYKLVEDFNWNFDDTHENNAESIFELLIEDVGGTDLWGDGENINSTQSNTRPKEYAAAEVGGWYEANPTQQIMDIFWKEKDKDGNFDYRARCSVAWDYEGCTYYQRPFREVFAQDKWKTYWILKYQNWKTQKDEPAPPKSFINERAIRYADVLLMLAEAYMNKGALDTSIGYINQIRRRANLNDYSGPITKEGVFEDLVHQRAIEFFVEGERFYDLRRWGLLEQTLKTCDDTRYKNYQTGKSDNINKFNYFPIPAKELDTNPLCTPSEGW
# Tests used:
# Assay in all cases: glycan array binding signal (z-score within array); higher = stronger binding
# Settings in all cases: glycan notation: IUPAC condensed, linker removed
# [1] = target: Neu5Ac(a2-3)Gal(b1-4)GlcNAc(b1-6)GalNAc
# How it was run: (§1)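 Glycan array data came from 3228 arrays in the Consortium for Functional Glycomics database, and only arrays with an available protein sequence were kept. Glycan names were put into IUPAC-condensed notation, and columns mapping to the same glycan were averaged. The binding signal is a within-array Z-score, averaged across arrays of one protein sequence run at different concentrations or buffers and across linkers. A negative Z-score can be read as non-binding.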
# [2] = target: Neu5Ac(a2-3)Gal(b1-4)GlcNAc(b1-6)[Gal(b1-3)]GalNAc
# How it was run: as §1
# [3] = target: Neu5Ac(a2-3)Gal(b1-4)GlcNAc(b1-6)[Neu5Ac(a2-3)Gal(b1-3)]GalNAc
# How it was run: as §1
# [4] = target: Neu5Ac(a2-3)Gal(b1-4)GlcNAc6S
# How it was run: as §1
# [5] = target: Neu5Ac(a2-3)Gal(b1-4)[Fuc(a1-3)]GlcNAc
# How it was run: as §1
# [6] = target: Neu5Ac(a2-3)Gal(b1-4)[Fuc(a1-3)]GlcNAc(b1-2)Man
# How it was run: as §1
# [7] = target: Neu5Ac(a2-3)Gal(b1-4)[Fuc(a1-3)]GlcNAc(b1-3)Gal
# How it was run: as §1
# [8] = target: Neu5Ac(a2-3)Gal(b1-4)[Fuc(a1-3)]GlcNAc(b1-3)Gal(b1-4)GlcNAc
# How it was run: as §1
# [9] = target: Neu5Ac(a2-3)Gal(b1-4)[Fuc(a1-3)]GlcNAc(b1-3)Gal(b1-4)[Fuc(a1-3)]GlcNAc(b1-3)Gal(b1-4)[Fuc(a1-3)]GlcNAc
# How it was run: as §1
# [10] = target: Neu5Ac(a2-3)Gal(b1-4)[Fuc(a1-3)]GlcNAc(b1-3)GalNAc
# How it was run: as §1
# [11] = target: Neu5Ac(a2-3)Gal(b1-4)[Fuc(a1-3)]GlcNAc(b1-6)[Gal(b1-3)]GalNAc
# How it was run: as §1
# [12] = target: Neu5Ac(a2-3)Gal(b1-4)[Fuc(a1-3)]GlcNAc(b1-6)[Neu5Ac(a2-3)Gal(b1-3)]GalNAc
# How it was run: as §1
# [13] = target: Neu5Ac(a2-3)Gal(b1-4)[Fuc(a1-3)]GlcNAc6S
# How it was run: as §1
# [14] = target: Neu5Ac(a2-3)Gal6S(b1-4)GlcNAc
# How it was run: as §1
# [15] = target: Neu5Ac(a2-3)Gal6S(b1-4)[Fuc(a1-3)]GlcNAc
# How it was run: as §1
# [16] = target: Neu5Ac(a2-3)GalNAc
# How it was run: as §1
# [17] = target: Neu5Ac(a2-3)GalNAc(b1-4)GlcNAc
# How it was run: as §1
# [18] = target: Neu5Ac(a2-3)[GalNAc(b1-4)]Gal(b1-4)Glc
# How it was run: as §1
# [19] = target: Neu5Ac(a2-3)[GalNAc(b1-4)]Gal(b1-4)GlcNAc
# How it was run: as §1
# [20] = target: Neu5Ac(a2-3)[GalNAc(b1-4)]Gal(b1-4)GlcNAc(b1-3)GalNAc
# How it was run: as §1
# [21] = target: Neu5Ac(a2-3)[Neu5Ac(a2-6)]GalNAc
# How it was run: as §1
# [22] = target: Neu5Ac(a2-6)Gal
# How it was run: as §1
binder,measurement,setting,value
B1,glycan array binding signal (z-score),[1],-0.439
same,glycan array binding signal (z-score),[2],0.59
same,glycan array binding signal (z-score),[3],-0.634
same,glycan array binding signal (z-score),[4],-0.399
same,glycan array binding signal (z-score),[5],-0.254
same,glycan array binding signal (z-score),[6],0.029
same,glycan array binding signal (z-score),[7],-0.627
same,glycan array binding signal (z-score),[8],1.04
same,glycan array binding signal (z-score),[9],-0.006
same,glycan array binding signal (z-score),[10],1.33
same,glycan array binding signal (z-score),[11],-0.359
same,glycan array binding signal (z-score),[12],0.243
same,glycan array binding signal (z-score),[13],0.349
same,glycan array binding signal (z-score),[14],0.881
same,glycan array binding signal (z-score),[15],-0.649
same,glycan array binding signal (z-score),[16],-0.732
same,glycan array binding signal (z-score),[17],-0.324
same,glycan array binding signal (z-score),[18],-0.02
same,glycan array binding signal (z-score),[19],0.138
same,glycan array binding signal (z-score),[20],-0.29
same,glycan array binding signal (z-score),[21],0.151
same,glycan array binding signal (z-score),[22],0.398

# 2 entries picked at random from those above, as already listed:
binder,measurement,setting,value
B1,glycan array binding signal (z-score),[17],-0.324
same,glycan array binding signal (z-score),[16],-0.732
